Taken from: PubChem BioAssay AID1159584 (Peter MacCallum Cancer Centre, 2016)
In all, the deposit lists about 18,000 reagents; below is an unselected part. Further read-outs or replicates are left out here. The record does not give: the amount of reagent, the time to read-out.

- Screen: 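Genes whose loss is lethal only together with E-cadherin loss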 (primary screen)
- Cell system: human MCF10A breast epithelial cells, parental and CDH1-null
- Reagent: siRNA against human genes
- Detection: 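ATP luminescence (CellTiter-Glo) viability per line relative to mean mock wells over all plates, and the ratio of CDH1-null to parental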
- Direction: CDH1-null / parental viability ratio: higher = CDH1-null cells survive relatively better than parental; CDH1-null viability vs mock: higher = more viable CDH1-null cells

gene | CDH1-null / parental viability ratio | CDH1-null viability vs mock (fraction of mock)
CD151 (CD151 molecule (Raph blood group)) | 0.85 | 0.8
LSM7 | 1.55 | 0.76
PPP1R14A (protein phosphatase 1 regulatory inhibitor subunit 14A) | 1 | 0.97
LRRC47 (leucine rich repeat containing 47) | 0.72 | 0.58
SPMIP5 (sperm microtubule inner protein 5) | 0.76 | 0.74
PLA2G15 (phospholipase A2 group XV) | 0.89 | 0.99
UAP1 (UDP-N-acetylglucosamine pyrophosphorylase 1) | 1 | 0.88
PARP8 (poly(ADP-ribose) polymerase family member 8) | 1.01 | 0.81
PARP12 (poly(ADP-ribose) polymerase family member 12) | 1 | 0.9
UQCRC2 (ubiquinol-cytochrome c reductase core protein 2) | 1.19 | 0.88
SFXN1 (sideroflexin 1) | 1.04 | 1.16
CRYL1 (crystallin lambda 1) | 1.12 | 0.47
PPY (pancreatic polypeptide) | 0.73 | 0.57
TUFM (Tu translation elongation factor, mitochondrial) | 1 | 0.9
KPNA4 (karyopherin subunit alpha 4) | 1.05 | 1.06
NDFIP2 (Nedd4 family interacting protein 2) | 0.87 | 0.7
ITIH2 (inter-alpha-trypsin inhibitor heavy chain 2) | 0.71 | 0.61
AKR1B10 (aldo-keto reductase family 1 member B10) | 1.05 | 0.78
HADH (hydroxyacyl-CoA dehydrogenase) | 0.77 | 0.68
KRT83 (keratin 83) | 1.03 | 0.68
PIK3CD-AS1 (PIK3CD antisense RNA 1) | 1.2 | 0.66
AREL1 (apoptosis resistant E3 ubiquitin protein ligase 1) | 1.1 | 0.97
SEC14L2 (SEC14 like lipid binding 2) | 0.98 | 0.9
CCSER2 (coiled-coil serine rich protein 2) | 0.89 | 0.83
DDB2 (damage specific DNA binding protein 2) | 1.16 | 1.02
TMED2 (transmembrane p24 trafficking protein 2) | 0.84 | 0.74
SH3BGRL3 (SH3 domain binding glutamate rich protein like 3) | 0.87 | 0.45
RINT1 (RAD50 interactor 1) | 0.81 | 0.47
SLC25A3 | 1.24 | 1.14
RASAL1 (RAS protein activator like 1) | 1.1 | 0.92
FBXO17 (F-box protein 17) | 0.85 | 0.7
GALNS (galactosamine (N-acetyl)-6-sulfatase) | 0.69 | 0.62
B4GALNT2 | 0.87 | 0.47
B4GALT3 (beta-1,4-galactosyltransferase 3) | 0.94 | 0.9
ACSS2 (acyl-CoA synthetase short chain family member 2) | 1.06 | 0.92
MYO1D (myosin ID) | 0.8 | 0.43
PIP5K1A (phosphatidylinositol-4-phosphate 5-kinase type 1 alpha) | 0.82 | 0.74
LRRC61 (leucine rich repeat containing 61) | 1.08 | 0.41
ADAP1 (ArfGAP with dual PH domains 1) | 1.17 | 0.82
OR2G3 (olfactory receptor family 2 subfamily G member 3) | 1.04 | 0.73
FCGR1A (Fc gamma receptor Ia) | 1.06 | 0.91
DNAJB5 (DnaJ heat shock protein family (Hsp40) member B5) | 0.87 | 0.88
SSX1 (SSX family member 1) | 0.89 | 0.64
WDR88 (WD repeat domain 88) | 0.87 | 0.54
KCNMB2 | 1.13 | 0.88
OR4C46 (olfactory receptor family 4 subfamily C member 46) | 0.92 | 0.33
TSPAN33 (tetraspanin 33) | 0.94 | 1.02
COQ4 (coenzyme Q4) | 1.09 | 1
VCAN (versican) | 0.85 | 0.78
DNAJC7 (DnaJ heat shock protein family (Hsp40) member C7) | 0.95 | 0.84
SELPLG (selectin P ligand) | 0.9 | 0.62
CRYBG1 (crystallin beta-gamma domain containing 1) | 0.83 | 0.63
PPT2 (palmitoyl-protein thioesterase 2) | 1.12 | 1.02
CLCNKA (chloride voltage-gated channel Ka) | 1.05 | 1.02
IL36G (interleukin 36 gamma) | 1.23 | 1.06
TLK1 (tousled like kinase 1) | 0.75 | 0.78
STEAP2 (STEAP2 metalloreductase) | 1.16 | 1.06
POLE3 (DNA polymerase epsilon 3, accessory subunit) | 1 | 0.64
DCAF15 (DDB1 and CUL4 associated factor 15) | 0.97 | 0.97
MRPS11 (mitochondrial ribosomal protein S11) | 1.04 | 0.78
STX11 (syntaxin 11) | 1.3 | 1.07
ZG16 (zymogen granule protein 16) | 1.19 | 0.74
GJD4 (gap junction protein delta 4) | 0.79 | 0.68
SLC7A10 | 0.95 | 0.78
OVOS2P (ovostatin 2, pseudogene) | 0.92 | 0.82
GABRR3 (gamma-aminobutyric acid type A receptor subunit rho3) | 1.44 | 0.78
SWT1 (SWT1 RNA endoribonuclease homolog) | 1 | 0.44
B3GNT2 | 0.95 | 0.82

In a second layout: 8 of the entries above.
{"gene":"KRT83 (keratin 83)","CDH1-null / parental viability ratio":1.03,"CDH1-null viability vs mock (fraction of mock)":0.68}
{"gene":"PIK3CD-AS1 (PIK3CD antisense RNA 1)","CDH1-null / parental viability ratio":1.2,"CDH1-null viability vs mock (fraction of mock)":0.66}
{"gene":"AREL1 (apoptosis resistant E3 ubiquitin protein ligase 1)","CDH1-null / parental viability ratio":1.1,"CDH1-null viability vs mock (fraction of mock)":0.97}
{"gene":"SEC14L2 (SEC14 like lipid binding 2)","CDH1-null / parental viability ratio":0.98,"CDH1-null viability vs mock (fraction of mock)":0.9}
{"gene":"CCSER2 (coiled-coil serine rich protein 2)","CDH1-null / parental viability ratio":0.89,"CDH1-null viability vs mock (fraction of mock)":0.83}
{"gene":"DDB2 (damage specific DNA binding protein 2)","CDH1-null / parental viability ratio":1.16,"CDH1-null viability vs mock (fraction of mock)":1.02}
{"gene":"TMED2 (transmembrane p24 trafficking protein 2)","CDH1-null / parental viability ratio":0.84,"CDH1-null viability vs mock (fraction of mock)":0.74}
{"gene":"SH3BGRL3 (SH3 domain binding glutamate rich protein like 3)","CDH1-null / parental viability ratio":0.87,"CDH1-null viability vs mock (fraction of mock)":0.45}
